Assay results taken from PubChem BioAssay AID624297 (National Center for Advancing Translational Sciences (NCATS), 2012).
The whole screen tested about 340,000 compounds, of which about 6,200 (1.8%) were called active. Inconclusive results, whose numbers are uncertain, are shown with a selection of clear calls. Calls follow the shape of the dose curve; as a rule, active = well fitted activation curve with a large enough effect; inconclusive = small, poorly fitted or top-dose-only effect; inactive = no such curve, though single readings can be large or run the other way. Where the call is inconclusive, the potency comes from a doubtful curve fit.

test: A quantitative high throughput screen for small molecules that induce DNA re-replication in SW480 colon adenocarcinoma cells.; also: nearly all actives have a fitted effect of over 55% in size; settings: Hoechst DNA content imaging, 48 h; series mostly up to 46.1 µM
In short: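 DNA re-replication was detected as more nuclei of elevated Hoechst intensity after 48 hr exposure to compound (23 nL pinned per well of 250 cells).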
Potency is read from the fitted curve at half-maximal effect.

| Structure (SMILES) | Potency |
| --- | --- |
| CC1(C)CCc2cc(-c3ccn(S(=O)(=O)c4ccccc4Cl)n3)ccc2O1 | inconclusive: 29.1 µM [activator, partial curve, poor fit] |
| N#C/C(=C\Nc1ccc2c(c1)OCCO2)c1nc2ccccc2[nH]1 | inconclusive: 29.1 µM [activator, single point] |
| Cc1ccc2oc3c(c(=O)c2c1)C(c1cccc(Br)c1)N(Cc1ccco1)C3=O (centres undefined) | inconclusive: 20.6 µM [activator, single point] |
| CCn1nc(NC(=O)C(C)(C)C)c2cc3cccc(C)c3nc21 | inconclusive: 16.4 µM [activator, single point] |
| O=C(COc1ccccc1)OCc1cc(-c2ccco2)on1 | inactive |
| NC(=O)c1ccc(NC(=O)CNc2cc(S(=O)(=O)N3CCOCC3)ccc2N2CCCC2)cc1 | inactive |
| COc1ccc(-c2nc(C#N)c(N3CCCCCC3)o2)cc1OC | inactive |
| O=C(CN1CCN(S(=O)(=O)c2ccccc2F)CC1)NC1CCCC1 | inconclusive: 5.8 µM [activator, full curve, poor fit] |
| CCN(CC(=O)NC(C)(C)C)C(=O)CCl | inconclusive: 29.1 µM [activator, single point] |
| CC(NC(=O)CNC(=O)Cc1cccc2ccccc12)c1ccc(S(N)(=O)=O)cc1 (centres undefined) | inconclusive: 2.31 µM [activator, full curve] |
| CCOc1cc(/C=C\[N+](=O)[O-])ccc1OCC(=O)Nc1ccccc1C | inconclusive: 6.51 µM [activator, partial curve, poor fit] |
| COc1ccc2c(c1)NC(C)(C)C=C2C | inconclusive: 4.61 µM [activator, full curve, poor fit] |
| Cc1cccc2cccnc12 | inconclusive: 0.206 µM [activator, partial curve, poor fit] |
| Nc1ncnc2c1ncn2[C@@H]1O[C@H](CNC(=O)[C@@H](N)C2CCCCC2)[C@@H](O)[C@H]1O | inactive |
| CC(OC(=O)c1ccc(Cl)nc1)C(=O)Nc1ccc2c(c1)OCO2 (centres undefined) | inactive |
| Cc1ccc2c(c1)c1c(n2CC(O)CN2CCCCCC2)CCCC1 (centres undefined) | inconclusive: 29.1 µM [activator, single point] |
| COc1ccc(C(=O)Nc2cc(C(=O)c3ccccc3)c(C)oc2=O)cc1 | inconclusive: 7.31 µM [activator, single point] |
| COc1ccc(-c2nnn(CC(=O)N(CCCN3CCOCC3)C(C(=O)NC3CCCC3)c3ccc(C)o3)n2)cc1 (centres undefined) | inconclusive: 29.1 µM [activator, single point] |
| OC1CCN(C(=S)Nc2ccc(Oc3ccccc3)cc2)CC1 | inactive |
| Cc1c(NC(=O)c2cccc(NC(=O)COc3ccc(C#N)cc3)c2)c(=O)n(-c2ccccc2)n1C | inconclusive: 0.731 µM [activator, partial curve, poor fit] |
| Cc1ccc(C(=O)/C=C/NNC(=O)c2ccccc2O)cc1 | inconclusive: 18.4 µM [activator, single point] |
| Cc1ccc(OCCOCCN2CCCC2)c(Br)c1 | inconclusive: 16.4 µM [activator, single point] |

| Structure (SMILES) | Potency |
| --- | --- |
| CCN(CC)CCCN=Cc1c(O)n(-c2c(C)cccc2C)c(=O)c2ccccc12 | inconclusive: 29.1 µM [activator, single point] |
| C/C(N)=C(/C#N)C(=O)CN1C(=O)NC(Cc2c[nH]c3ccccc23)C1=O (centres undefined) | inactive |
| CCn1c2ccccc2c2nnc(SCCCn3c(=O)[nH]c4ccccc43)nc21 | inconclusive: 20.6 µM [activator, single point] |
| O=C(CC(O)c1ccccc1)Nc1ccccn1 (centres undefined) | inactive |
| Cc1cccn2c(=O)c3cc(C(=O)NCc4ccco4)c(=N)n(CCOCCO)c3nc12 | inconclusive: 29.1 µM [activator, single point] |
| Cc1oc(-c2cccc(Cl)c2)nc1CS(=O)(=O)CC(=O)NC1CCCC1 | inconclusive: 4.61 µM [activator, single point] |
| O=S(=O)(Nc1cccc(S(=O)(=O)N2CCCCC2)c1)c1ccccc1F | inconclusive: 16.4 µM [activator, single point] |
| CCOC(=O)C1=CNS(=O)(=O)NC1c1ccc(C(F)(F)F)cc1 (centres undefined) | inconclusive: 32.6 µM [activator, partial curve, poor fit] |
| COc1ccc(C(=O)NCc2ccc(OCCN(C)C)cc2)cc1OC | inactive |
| O=C(NC1CCCCC1)C(c1cccs1)N(C(=O)c1ccccn1)c1ccccc1 (centres undefined) | inactive |
| CN(C)CCCN1c2ccc3ccccc3c2Sc2cccc(Cl)c21 | inconclusive: 29.1 µM [activator, single point] |
| COc1ccc(N2C(=O)N3[C@H](c4ccc(Br)cc4)[C@@H]4C(=O)N(C(C)(C)C)C(=O)[C@@H]4[C@]3(Cc3ccccc3)C2=O)cc1 | inconclusive: 6.51 µM [activator, single point] |
| C(=NOCc1ccccc1)c1cccnc1 | inactive |
| O=C(Nc1ccccc1)Nc1cnccn1 | inactive |
| COc1ccc(C(C)(C)C)cc1NC(=O)COC(=O)C1=NNC(=O)CC1 | inactive |
| Oc1cccc2ccc(/C=C/c3ccccc3Br)nc12 | active: 6.51 µM |
| CCC1Sc2ccc(S(=O)(=O)N3CCN(c4ccccc4)CC3)cc2NC1=O (centres undefined) | inconclusive: 16.4 µM [activator, single point] |
| C[C@H](NC(=O)c1nc[nH]c1C(=O)NCCCCCNC(=O)OC(C)(C)C)C(=O)OC(C)(C)C | inactive |
| O=C(Cn1ncc2c([nH]c3ccccc32)c1=O)NCCCN1CCN(c2ccccc2)CC1 | inactive |
| C[C@]1(C(=O)NCCCNc2ncc(C(F)(F)F)cc2Cl)C=C[C@@H](Cc2ccccc2)N1C(=O)c1ccccc1 | inconclusive: 0.259 µM [activator, full curve, poor fit] |
| C[C@@H](C(=O)Nc1ccc2ccccc2c1)[C@@H]1C[C@@]1(C)[C@@H](NC(=O)c1cnccn1)c1ccccc1 | inconclusive: 25.9 µM [activator, partial curve, poor fit] |
| COc1cccc(NC(=O)/C=C/c2ccc(S(=O)(=O)N3CCOCC3)cc2)c1 | inconclusive: 0.092 µM [activator, full curve, poor fit] |

In the list so far, these contain a CF3 group.

| Structure (SMILES) | Potency |
| --- | --- |
| CCOC(=O)C1=CNS(=O)(=O)NC1c1ccc(C(F)(F)F)cc1 (centres undefined) | inconclusive: 32.6 µM [activator, partial curve, poor fit] |
| C[C@]1(C(=O)NCCCNc2ncc(C(F)(F)F)cc2Cl)C=C[C@@H](Cc2ccccc2)N1C(=O)c1ccccc1 | inconclusive: 0.259 µM [activator, full curve, poor fit] |
